Assay results as given in patent publication US20060154871A1, “Peptides” (ReGen Therapeutics PIc, priority 1999, published 2006).

Assay: Level of peptides in sheep colostrum post parturition, measured by antigen-antibody reaction with the Example 3 antibodies
Conditions: for recognition of the amino acid sequence by the antibodies: in sheep colostrum; for 24 Hour Titre: sheep colostrum collected 24 hours post parturition; for 48 Hour Titre: sheep colostrum collected 48 hours post parturition; for 72 Hour Titre: sheep colostrum collected 72 hours post parturition
Procedure: In order to establish that the peptides corresponding to the synthetic peptide antigens exist in Colostrinin we carried out tests to determine whether certain of the antibodies produced a reaction in Colostrinin itself.
We studied the rate at which the peptides A-4, B-7, B-8 and B-9 disappeared from colostrum produced in sheep. The colostrum was collected from the mother's milk at 24 hours, 48 hours and 72 hours post parturition, and the level of the peptides was measured. The peptide level was measured by means of an antigen-antibody reaction, using the antibodies produced by the method of Example 3.

Row | Substance | recognition of the amino acid sequence by the antibodies | 24 Hour Titre | 48 Hour Titre | 72 Hour Titre
1 | LKPFPKLKVEVFPFP [Peptide A-4, Colostrinin peptide of unknown precursor] | recognised | 12800 | 6400 | 3200
2 | LFFFLPVVNVLP [Peptide B-8, Colostrinin peptide (possibly) having β-casein homologue precursor] | recognised | 12800 | 3200 | 3200
3 | DLEMPVLPVEPFPFV [Peptide B-7, Colostrinin peptide (possibly) having β-casein homologue precursor] | recognised | 12800 | 6400 | 3200
4 | MQPPPLP [Peptide B-9, Colostrinin peptide (possibly) having β-casein homologue precursor] | recognised | 12800 | 12800 | 3200
